Test results published in US6844358B2, “Phenyl oxo-acetic acids useful in the treatment of insulin resistance and hyperglycemia” (Wyeth, priority 1998, dated 2005).
At least one compound was matched to its structure with a doubt left.

Tested on: diabetic (ob/ob) mice
Test: Blood glucose lowering activity in diabetic (ob/ob) mice
Type: in vivo, mouse
Method: The procedures used and results obtained are briefly described below. […]
In each test procedure, mice [Male or female ob/ob (C57 B1/6J) and their lean litermates (ob/+ or +/+, Jackson Laboratories) ages 2 to 5 months (10 to 65 g)] of a similar age were randomized according to body weight into 4 groups of 10 mice. The mice were housed 5 per cage and are maintained on normal rodent chow with water ad libitum. Mice received test compound daily by gavage (suspended in 0.5 ml of 0.5% methyl cellulose); dissolved in the drinking water; or admixed in the diet. The dose of compounds given ranges from 2.5 to 200 mg/kg body weight/day. The dose is calculated based on the fed weekly body weight and is expressed as active moiety. […] Control mice received vehicle only.
On the morning of Day 4, 7 or 14 two drops of blood (approximetly 50 ul) were collected into sodium fluoride containing tubes either from the tail vein or after decapitation. For those studies in which the compound was administered daily by gavage the blood samples were collected two hours after compound administration. […]
Analysis of variance followed by Dunett's Comparison Test (one-tailed) are used to estimate the significant difference between the plasma glucose values from the control group and the individual compound treated groups (CMS SAS Release 5.18).

**Q.** How did the “blood/plasma glucose lowering (in words)” value turn out when `CC1(COc2ccc(CC3SC(=O)NC3=O)cc2)CCCCC1` (stereo not shown) [Ciglitazone, 5-(4-(1-methylcyclohexylmethoxy)benzyl)-2,4-dione, reference compound] was run?
**A.** Its value is “significant lowering in plasma glucose”.
